In PubChem BioAssay AID282 (DTP/NCI, 2004):
The list is a part of this screen's results and no random one: its compounds were picked by chemical class. Other doses and runs of a compound may be missing. T/C: endpoint of the treated group in % of that of the vehicle group. For survival time, this PubChem deposit counts one and a half times the control or more as active, and values a quarter to a half above the control carry no call in these data; other NCI protocols may use other cut-offs. Some T/C values are marked as having no survivor count here; that says nothing about deaths at the dose. Schedules are NCI's codes, read here as Q, the interval in days (D) or hours (H), X, the number of doses. Some doses were run more than once; the results are listed from low to high. Some schedule codes hold Z or #, which are not explained here.

Test system: BDF1 mice, L1210 terephthalanilide-resistant leukemia ip, survival T/C
Assay: NCI In Vivo Anticancer Drug Screen. Data for tumor model L1210 Leukemia resistant to A Terephthalanilide; NSC 38280 (intraperitoneal) in B6D2F1 (BDF1) mice
Conditions: T/C endpoint: mean survival time, higher T/C = longer survival
Procedure: The antitumor activity of compounds was measured in mice bearing transplantable tumors. Survival or tumor size were measured and the results are expressed as the measurement made in the treated group (T) divided by the measurement made in the vehicle treated control group (C). The tumor model used in this assay is L1210 Leukemia resistant to A Terephthalanilide; NSC 38280 (intraperitoneal) in B6D2F1 (BDF1) mice

Q: With `ClCCN(CCCl)Cc1nc2ccccc2[nH]1` as the molecule, how does the T/C (dose: 1.25 mg/kg/injection, schedule: Q01DX010 (ip), vehicle: saline) read?
A: 107 % of control [survivor count not shown]

Q: What about the T/C (dose: 2.0 mg/kg/injection, schedule: Q01DX Z (ip), vehicle: saline) of the same molecule?
A: 125 % of control [survivor count not shown]

Q: What about the T/C (dose: 2.5 mg/kg/injection, schedule: Q01DX010 (ip), vehicle: saline) of the same molecule?
A: 112 [survivor count not shown] and 118 % of control [survivor count not shown]

Q: What about the T/C (dose: 3.0 mg/kg/injection, schedule: Q01DX Z (ip), vehicle: saline) of the same molecule?
A: 122 % of control [survivor count not shown]

Q: And the T/C (dose: 4.0 mg/kg/injection, schedule: Q01DX Z (ip), vehicle: saline)?
A: 148 % of control [survivor count not shown]

Q: What about the T/C (dose: 5.0 mg/kg/injection, schedule: Q01DX010 (ip), vehicle: saline) of the same molecule?
A: 130 [survivor count not shown] and 133 % of control [survivor count not shown]

Q: What about the T/C (dose: 5.0 mg/kg/injection, schedule: Q01DX Z (ip), vehicle: saline) of the same molecule?
A: 135 % of control [survivor count not shown]

Q: What about the T/C (dose: 6.0 mg/kg/injection, schedule: Q01DX Z (ip), vehicle: saline) of the same molecule?
A: 174 % of control [survivor count not shown]

Q: What about the T/C (dose: 7.5 mg/kg/injection, schedule: Q01DX Z (ip), vehicle: saline) of the same molecule?
A: 187 % of control [survivor count not shown]

Q: What about the T/C (dose: 10.0 mg/kg/injection, schedule: Q01DX010 (ip), vehicle: saline) of the same molecule?
A: 107 [survivor count not shown] and 149 % of control [survivor count not shown]

Q: What about the T/C (dose: 10.0 mg/kg/injection, schedule: Q01DX Z (ip), vehicle: saline) of the same molecule?
A: 132 % of control [survivor count not shown]

Q: And the T/C (dose: 15.0 mg/kg/injection, schedule: Q01DX Z (ip), vehicle: saline)?
A: 95 % of control [survivor count not shown]

Q: Which T/C (dose: 9.4 mg/kg/injection, schedule: Q01DX010 (ip), vehicle: saline) does the source give for `ClCCNCCCl` here?
A: 113 % of control [survivor count not shown]

Q: What about the T/C (dose: 12.5 mg/kg/injection, schedule: Q01DX Z (ip), vehicle: saline) of the same molecule?
A: 90 [survivor count not shown] and 117 % of control [survivor count not shown]

Q: What about the T/C (dose: 18.8 mg/kg/injection, schedule: Q01DX010 (ip), vehicle: saline) of the same molecule?
A: 133 [survivor count not shown] and 147 % of control [survivor count not shown]

Q: What about the T/C (dose: 25.0 mg/kg/injection, schedule: Q01DX Z (ip), vehicle: saline) of the same molecule?
A: 115 [survivor count not shown] and 117 % of control [survivor count not shown]

Q: What about the T/C (dose: 37.5 mg/kg/injection, schedule: Q01DX010 (ip), vehicle: saline) of the same molecule?
A: 104 [survivor count not shown] and 159 % of control [survivor count not shown]

Q: And the T/C (dose: 37.5 mg/kg/injection, schedule: Q01DX Z (ip), vehicle: saline)?
A: 122 % of control [survivor count not shown]

Q: And the T/C (dose: 50.0 mg/kg/injection, schedule: Q01DX Z (ip), vehicle: saline)?
A: 181 % of control [survivor count not shown]

Q: What about the T/C (dose: 75.0 mg/kg/injection, schedule: Q01DX Z (ip), vehicle: saline) of the same molecule?
A: 119 % of control [survivor count not shown]

Q: And the T/C (dose: 100.0 mg/kg/injection, schedule: Q01DX Z (ip), vehicle: saline)?
A: 105 % of control [survivor count not shown]

Q: How did the T/C (dose: 0.13 mg/kg/injection, schedule: Q01DX010 (ip), vehicle: saline) turn out when `NC(Cc1ccccc1N(CCCl)CCCl)C(=O)O` (configuration not stated) was run?
A: 123 % of control [survivor count not shown]

Q: What about the T/C (dose: 0.18 mg/kg/injection, schedule: Q01DX Z (ip), vehicle: carboxymethylcellulose (CMC)) of the same molecule?
A: 177 % of control [survivor count not shown]

Q: What about the T/C (dose: 0.25 mg/kg/injection, schedule: Q01DX010 (ip), vehicle: saline) of the same molecule?
A: 145 % of control [survivor count not shown]

Q: What about the T/C (dose: 0.37 mg/kg/injection, schedule: Q01DX Z (ip), vehicle: carboxymethylcellulose (CMC)) of the same molecule?
A: 191 % of control [survivor count not shown]

Q: And the T/C (dose: 0.5 mg/kg/injection, schedule: Q01DX Z (ip), vehicle: carboxymethylcellulose (CMC))?
A: 202 % of control [survivor count not shown]

Q: And the T/C (dose: 0.75 mg/kg/injection, schedule: Q01DX Z (ip), vehicle: carboxymethylcellulose (CMC))?
A: 227 % of control [survivor count not shown]

Q: What about the T/C (dose: 1.0 mg/kg/injection, schedule: Q01DX Z (ip), vehicle: carboxymethylcellulose (CMC)) of the same molecule?
A: 295 % of control [survivor count not shown]

Q: And the T/C (dose: 1.5 mg/kg/injection, schedule: Q01DX Z (ip), vehicle: carboxymethylcellulose (CMC))?
A: 203 % of control [survivor count not shown]

Q: What about the T/C (dose: 2.0 mg/kg/injection, schedule: Q01DX Z (ip), vehicle: carboxymethylcellulose (CMC)) of the same molecule?
A: 128 % of control [survivor count not shown]

Q: What about the T/C (dose: 37.0 micrograms/kg/injection, schedule: Q01DX Z (ip), vehicle: saline) of the same molecule?
A: 115 % of control [survivor count not shown]

Q: And the T/C (dose: 50.0 micrograms/kg/injection, schedule: Q01DX Z (ip), vehicle: saline)?
A: 119 % of control [survivor count not shown]

Q: What about the T/C (dose: 75.0 micrograms/kg/injection, schedule: Q01DX Z (ip), vehicle: saline) of the same molecule?
A: 125 % of control [survivor count not shown]

Q: What about the T/C (dose: 100.0 micrograms/kg/injection, schedule: Q01DX Z (ip), vehicle: saline) of the same molecule?
A: 136 % of control [survivor count not shown]

Q: How did the T/C (dose: 15.6 mg/kg/injection, schedule: Q01DX010 (ip), vehicle: saline) turn out when `NC1CCCCC1.NP(=O)(O)N(CCCl)CCCl` was run?
A: 142 [survivor count not shown] and 143 % of control [survivor count not shown]

Q: What about the T/C (dose: 31.3 mg/kg/injection, schedule: Q01DX010 (ip), vehicle: saline) of the same molecule?
A: 154 [survivor count not shown], 179 [survivor count not shown], 224 % of control [survivor count not shown]

Q: And the T/C (dose: 62.5 mg/kg/injection, schedule: Q01DX010 (ip), vehicle: saline)?
A: 103 [survivor count not shown] and 182 % of control [survivor count not shown]
